{
  "sequences": {"note": "By UniProt entry, the sequences of proteins in these tests, tags left out.", "EIF2B4, Q9UI10, UniProt Q9UI10, whole entry": "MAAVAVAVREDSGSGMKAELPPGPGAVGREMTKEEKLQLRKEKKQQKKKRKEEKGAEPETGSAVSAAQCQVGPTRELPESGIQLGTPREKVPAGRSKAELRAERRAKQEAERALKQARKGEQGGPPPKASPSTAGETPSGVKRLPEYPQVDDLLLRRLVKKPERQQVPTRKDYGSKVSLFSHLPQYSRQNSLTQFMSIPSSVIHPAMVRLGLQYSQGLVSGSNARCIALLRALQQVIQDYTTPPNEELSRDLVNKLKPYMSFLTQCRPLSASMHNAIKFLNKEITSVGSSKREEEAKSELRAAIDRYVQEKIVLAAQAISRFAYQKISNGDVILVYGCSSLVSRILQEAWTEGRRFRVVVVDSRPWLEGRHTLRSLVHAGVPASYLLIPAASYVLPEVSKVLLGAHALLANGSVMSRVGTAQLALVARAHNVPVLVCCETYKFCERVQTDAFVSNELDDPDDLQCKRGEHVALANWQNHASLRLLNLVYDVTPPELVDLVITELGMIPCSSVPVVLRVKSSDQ", "EIF2B5, Q13144, UniProt Q13144, whole entry": "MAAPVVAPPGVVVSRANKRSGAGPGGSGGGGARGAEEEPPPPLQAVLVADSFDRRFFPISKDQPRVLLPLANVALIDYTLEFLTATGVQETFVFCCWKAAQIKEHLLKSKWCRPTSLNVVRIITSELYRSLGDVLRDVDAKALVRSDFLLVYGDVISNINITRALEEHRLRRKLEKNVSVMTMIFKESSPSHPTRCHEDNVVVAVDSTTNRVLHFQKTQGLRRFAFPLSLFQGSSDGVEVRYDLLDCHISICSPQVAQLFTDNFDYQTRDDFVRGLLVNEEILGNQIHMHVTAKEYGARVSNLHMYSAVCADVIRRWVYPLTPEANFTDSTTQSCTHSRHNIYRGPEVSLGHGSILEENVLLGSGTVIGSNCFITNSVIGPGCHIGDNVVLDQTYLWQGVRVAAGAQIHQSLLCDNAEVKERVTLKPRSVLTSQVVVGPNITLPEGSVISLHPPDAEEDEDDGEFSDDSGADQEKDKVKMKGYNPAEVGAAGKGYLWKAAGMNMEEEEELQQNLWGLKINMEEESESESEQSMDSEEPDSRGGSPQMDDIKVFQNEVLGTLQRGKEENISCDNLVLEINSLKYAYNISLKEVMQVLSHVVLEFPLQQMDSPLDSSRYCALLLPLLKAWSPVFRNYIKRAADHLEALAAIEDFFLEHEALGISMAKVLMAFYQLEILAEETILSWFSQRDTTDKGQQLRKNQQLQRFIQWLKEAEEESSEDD", "NDUFB5, O43674, UniProt O43674, whole entry": "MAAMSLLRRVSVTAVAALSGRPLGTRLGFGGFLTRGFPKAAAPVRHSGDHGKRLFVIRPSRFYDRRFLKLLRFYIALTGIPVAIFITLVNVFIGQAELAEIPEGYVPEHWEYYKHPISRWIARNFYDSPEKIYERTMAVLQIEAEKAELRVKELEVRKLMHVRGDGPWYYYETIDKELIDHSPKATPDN", "PHAX, Q9H814, UniProt Q9H814, whole entry": "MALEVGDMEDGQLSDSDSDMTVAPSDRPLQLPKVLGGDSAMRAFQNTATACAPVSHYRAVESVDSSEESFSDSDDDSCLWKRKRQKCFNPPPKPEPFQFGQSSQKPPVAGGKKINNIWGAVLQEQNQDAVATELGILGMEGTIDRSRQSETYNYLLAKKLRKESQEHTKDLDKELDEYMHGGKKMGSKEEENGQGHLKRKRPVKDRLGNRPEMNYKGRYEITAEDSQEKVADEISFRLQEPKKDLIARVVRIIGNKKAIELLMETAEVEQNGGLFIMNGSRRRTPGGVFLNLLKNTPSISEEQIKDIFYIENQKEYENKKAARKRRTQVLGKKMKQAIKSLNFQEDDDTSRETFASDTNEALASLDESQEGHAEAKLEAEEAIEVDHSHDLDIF", "EIF2S1, P05198, UniProt P05198, whole entry": "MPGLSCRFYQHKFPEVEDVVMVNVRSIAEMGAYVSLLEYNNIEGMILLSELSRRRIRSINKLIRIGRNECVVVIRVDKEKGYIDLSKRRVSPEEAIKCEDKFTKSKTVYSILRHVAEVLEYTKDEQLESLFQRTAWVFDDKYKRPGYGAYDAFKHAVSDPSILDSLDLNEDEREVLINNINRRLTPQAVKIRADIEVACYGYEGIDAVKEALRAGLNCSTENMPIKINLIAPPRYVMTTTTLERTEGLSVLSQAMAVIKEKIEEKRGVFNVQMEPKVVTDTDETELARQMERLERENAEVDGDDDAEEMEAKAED", "EP300, Q09472, UniProt Q09472, whole entry": "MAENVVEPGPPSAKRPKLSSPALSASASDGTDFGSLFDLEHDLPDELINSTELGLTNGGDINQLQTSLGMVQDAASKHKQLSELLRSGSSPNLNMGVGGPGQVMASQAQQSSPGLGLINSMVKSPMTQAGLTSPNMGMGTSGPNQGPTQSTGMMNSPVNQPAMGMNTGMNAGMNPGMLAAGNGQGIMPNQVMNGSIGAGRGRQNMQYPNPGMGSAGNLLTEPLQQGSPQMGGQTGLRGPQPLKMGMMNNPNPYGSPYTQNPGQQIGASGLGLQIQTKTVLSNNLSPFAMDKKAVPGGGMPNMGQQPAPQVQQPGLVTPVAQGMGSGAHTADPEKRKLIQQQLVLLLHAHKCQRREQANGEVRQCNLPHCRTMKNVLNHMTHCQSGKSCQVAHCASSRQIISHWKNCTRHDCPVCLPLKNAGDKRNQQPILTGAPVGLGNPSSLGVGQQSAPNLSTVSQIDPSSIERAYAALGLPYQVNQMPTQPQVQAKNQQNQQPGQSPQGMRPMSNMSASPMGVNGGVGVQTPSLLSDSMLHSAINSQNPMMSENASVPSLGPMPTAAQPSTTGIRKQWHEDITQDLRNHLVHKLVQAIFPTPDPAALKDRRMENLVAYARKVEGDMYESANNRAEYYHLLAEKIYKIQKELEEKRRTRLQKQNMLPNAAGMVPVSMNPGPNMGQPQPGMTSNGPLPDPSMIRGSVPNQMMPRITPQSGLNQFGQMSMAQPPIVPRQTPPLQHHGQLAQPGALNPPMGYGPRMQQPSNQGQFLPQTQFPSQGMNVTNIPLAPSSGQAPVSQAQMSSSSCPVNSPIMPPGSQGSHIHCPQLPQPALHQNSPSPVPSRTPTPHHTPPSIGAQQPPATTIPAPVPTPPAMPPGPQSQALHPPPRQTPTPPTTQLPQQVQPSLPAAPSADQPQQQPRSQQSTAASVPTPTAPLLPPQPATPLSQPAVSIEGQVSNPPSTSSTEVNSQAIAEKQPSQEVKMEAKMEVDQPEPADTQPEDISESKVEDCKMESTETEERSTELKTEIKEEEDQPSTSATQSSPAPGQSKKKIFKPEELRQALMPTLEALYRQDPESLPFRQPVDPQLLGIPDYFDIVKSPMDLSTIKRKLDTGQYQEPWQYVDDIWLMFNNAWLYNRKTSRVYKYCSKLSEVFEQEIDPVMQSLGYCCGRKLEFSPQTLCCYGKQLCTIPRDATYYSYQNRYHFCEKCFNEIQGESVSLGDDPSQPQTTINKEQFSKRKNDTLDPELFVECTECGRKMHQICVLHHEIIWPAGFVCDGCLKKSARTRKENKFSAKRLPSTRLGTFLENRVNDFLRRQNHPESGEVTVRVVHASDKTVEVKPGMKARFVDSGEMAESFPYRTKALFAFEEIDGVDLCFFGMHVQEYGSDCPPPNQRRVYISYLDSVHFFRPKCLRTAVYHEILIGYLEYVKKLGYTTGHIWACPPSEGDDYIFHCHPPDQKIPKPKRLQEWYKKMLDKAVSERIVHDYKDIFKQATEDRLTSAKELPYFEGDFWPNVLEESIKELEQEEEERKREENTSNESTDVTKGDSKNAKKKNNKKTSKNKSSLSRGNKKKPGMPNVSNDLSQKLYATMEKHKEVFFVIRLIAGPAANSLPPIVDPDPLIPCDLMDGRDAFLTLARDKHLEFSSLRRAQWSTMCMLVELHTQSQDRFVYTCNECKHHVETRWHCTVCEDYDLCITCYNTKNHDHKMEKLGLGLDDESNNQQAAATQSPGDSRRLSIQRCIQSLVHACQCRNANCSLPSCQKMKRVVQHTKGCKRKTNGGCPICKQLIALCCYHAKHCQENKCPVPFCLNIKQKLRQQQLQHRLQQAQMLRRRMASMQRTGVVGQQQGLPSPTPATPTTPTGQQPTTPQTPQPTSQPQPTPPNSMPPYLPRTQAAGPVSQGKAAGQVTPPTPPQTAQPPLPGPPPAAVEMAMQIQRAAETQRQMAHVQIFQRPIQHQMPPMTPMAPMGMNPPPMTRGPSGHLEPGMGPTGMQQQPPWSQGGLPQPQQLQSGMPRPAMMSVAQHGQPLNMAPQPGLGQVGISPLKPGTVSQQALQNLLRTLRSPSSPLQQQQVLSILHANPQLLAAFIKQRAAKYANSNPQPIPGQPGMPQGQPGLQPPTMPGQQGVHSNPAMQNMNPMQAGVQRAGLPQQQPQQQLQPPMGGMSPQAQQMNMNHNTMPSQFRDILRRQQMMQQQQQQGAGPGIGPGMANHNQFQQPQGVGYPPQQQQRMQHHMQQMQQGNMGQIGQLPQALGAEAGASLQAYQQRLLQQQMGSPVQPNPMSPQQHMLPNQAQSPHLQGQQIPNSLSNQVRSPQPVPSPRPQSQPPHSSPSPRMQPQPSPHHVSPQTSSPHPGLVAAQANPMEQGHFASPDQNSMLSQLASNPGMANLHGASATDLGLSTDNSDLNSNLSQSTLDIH", "NDUFS7, O75251, UniProt O75251, whole entry": "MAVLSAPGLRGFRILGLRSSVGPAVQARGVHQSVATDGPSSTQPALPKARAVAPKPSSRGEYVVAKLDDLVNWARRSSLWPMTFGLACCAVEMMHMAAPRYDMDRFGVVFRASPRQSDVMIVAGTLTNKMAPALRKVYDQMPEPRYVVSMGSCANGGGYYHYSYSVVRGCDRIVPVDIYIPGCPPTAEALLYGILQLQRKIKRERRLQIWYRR", "PSMC6, P62333, UniProt P62333, whole entry": "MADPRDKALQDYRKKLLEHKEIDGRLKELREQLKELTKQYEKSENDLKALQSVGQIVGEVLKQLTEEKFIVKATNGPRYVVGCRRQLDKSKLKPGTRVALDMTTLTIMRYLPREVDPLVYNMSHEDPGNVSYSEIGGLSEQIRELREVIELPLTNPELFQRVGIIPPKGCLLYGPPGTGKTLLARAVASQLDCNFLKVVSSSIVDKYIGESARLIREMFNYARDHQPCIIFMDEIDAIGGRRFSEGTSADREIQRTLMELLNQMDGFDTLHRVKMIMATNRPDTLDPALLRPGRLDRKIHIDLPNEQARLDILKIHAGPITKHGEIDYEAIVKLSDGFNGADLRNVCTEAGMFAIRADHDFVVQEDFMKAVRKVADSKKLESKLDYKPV", "TPX2, Q9ULW0, UniProt Q9ULW0, whole entry": "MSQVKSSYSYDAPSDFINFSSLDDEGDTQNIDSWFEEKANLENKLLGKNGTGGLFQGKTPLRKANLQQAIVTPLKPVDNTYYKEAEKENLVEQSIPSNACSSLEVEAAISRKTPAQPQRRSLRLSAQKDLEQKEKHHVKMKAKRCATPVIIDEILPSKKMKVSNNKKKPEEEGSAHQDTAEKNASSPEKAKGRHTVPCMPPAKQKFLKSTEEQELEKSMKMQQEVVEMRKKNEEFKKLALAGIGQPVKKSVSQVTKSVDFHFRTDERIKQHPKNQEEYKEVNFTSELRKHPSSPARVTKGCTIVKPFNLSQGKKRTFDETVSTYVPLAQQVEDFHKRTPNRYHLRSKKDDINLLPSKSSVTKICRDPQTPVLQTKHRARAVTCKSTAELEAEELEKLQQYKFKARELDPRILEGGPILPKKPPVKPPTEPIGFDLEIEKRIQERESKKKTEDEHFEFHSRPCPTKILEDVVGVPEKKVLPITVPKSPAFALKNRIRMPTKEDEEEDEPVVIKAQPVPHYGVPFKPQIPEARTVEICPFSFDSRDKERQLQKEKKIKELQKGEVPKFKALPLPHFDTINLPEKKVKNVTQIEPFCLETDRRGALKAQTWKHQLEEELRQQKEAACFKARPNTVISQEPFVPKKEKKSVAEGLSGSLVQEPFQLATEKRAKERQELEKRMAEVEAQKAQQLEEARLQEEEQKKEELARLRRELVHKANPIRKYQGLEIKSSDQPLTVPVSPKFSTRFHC"},
  "source": "the supplement of paper PMC10032668",
  "assay_in_all_cases": "PRISMA enrichment of interactor (LFQ) in peptide spot vs all other peptide spots (log2 fold change); higher = stronger / more specific binding of the interactor to the peptide",
  "key": {"[1]": {"biological_target": "AKAP17A, Q02040", "experimental": "(§1)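 PRISMA: 15-aa overlapping tiles (offset 8 aa) of 60 microproteins, plus SOS1/GLUT1 control peptides, were spot-synthesized on cellulose membranes in triplicate. Membranes were incubated with benzonase-treated HEK293T lysate, and bound proteins were identified by LC-MS/MS with LFQ. Enrichment is the log2 fold change of each protein in one spot versus all other spots. Only interactors passing the significance cutoff are listed.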"}, "[2]": {"biological_target": "CCAR1, Q8IX12", "experimental": "as §1"}, "[3]": {"biological_target": "CCDC86, Q9H6F5", "experimental": "as §1"}, "[4]": {"biological_target": "CLSPN, Q9HAW4", "experimental": "as §1"}, "[5]": {"biological_target": "DDX19A, Q9NUU7", "experimental": "as §1"}, "[6]": {"biological_target": "EIF2B4, Q9UI10", "experimental": "as §1"}, "[7]": {"biological_target": "EIF2B5, Q13144", "experimental": "as §1"}, "[8]": {"biological_target": "HSPBP1, Q9NZL4", "experimental": "as §1"}, "[9]": {"biological_target": "LEO1, Q8WVC0", "experimental": "as §1"}, "[10]": {"biological_target": "MAT1A, Q00266", "experimental": "as §1"}, "[11]": {"biological_target": "MED23, Q9ULK4", "experimental": "as §1"}, "[12]": {"biological_target": "MOV10, Q9HCE1", "experimental": "as §1"}, "[13]": {"biological_target": "MPC2, O95563", "experimental": "as §1"}, "[14]": {"biological_target": "NDUFB5, O43674", "experimental": "as §1"}, "[15]": {"biological_target": "NOC2L, Q9Y3T9", "experimental": "as §1"}, "[16]": {"biological_target": "NOL10, Q9BSC4", "experimental": "as §1"}, "[17]": {"biological_target": "PHAX, Q9H814", "experimental": "as §1"}, "[18]": {"biological_target": "PPP1R2, P41236", "experimental": "as §1"}, "[19]": {"biological_target": "PRDX1, Q06830", "experimental": "as §1"}, "[20]": {"biological_target": "AKAP8L, Q9ULX6", "experimental": "as §1"}, "[21]": {"biological_target": "BCAP31, P51572", "experimental": "as §1"}, "[22]": {"biological_target": "CENPV, Q7Z7K6", "experimental": "as §1"}, "[23]": {"biological_target": "CEP290, O15078", "experimental": "as §1"}, "[24]": {"biological_target": "DDX1, Q92499", "experimental": "as §1"}, "[25]": {"biological_target": "DHX30, Q7L2E3", "experimental": "as §1"}, "[26]": {"biological_target": "EARS2, Q5JPH6", "experimental": "as §1"}, "[27]": {"biological_target": "ECI2, O75521", "experimental": "as §1"}, "[28]": {"biological_target": "EIF2S1, P05198", "experimental": "as §1"}, "[29]": {"biological_target": "EP300, Q09472", "experimental": "as §1"}, "[30]": {"biological_target": "FBXO3, Q9UK99", "experimental": "as §1"}, "[31]": {"biological_target": "MPP1, Q00013", "experimental": "as §1"}, "[32]": {"biological_target": "MRPS35, P82673", "experimental": "as §1"}, "[33]": {"biological_target": "NDUFS7, O75251", "experimental": "as §1"}, "[34]": {"biological_target": "NF1, P21359", "experimental": "as §1"}, "[35]": {"biological_target": "NKAP, Q8N5F7", "experimental": "as §1"}, "[36]": {"biological_target": "NUP160, Q12769", "experimental": "as §1"}, "[37]": {"substrate": "PC, P11498", "experimental": "as §1"}, "[38]": {"biological_target": "PSMA3, P25788", "experimental": "as §1"}, "[39]": {"biological_target": "PSMC6, P62333", "experimental": "as §1"}, "[40]": {"biological_target": "PTRH2, Q9Y3E5", "experimental": "as §1"}, "[41]": {"biological_target": "PWP1, Q13610", "experimental": "as §1"}, "[42]": {"biological_target": "ROCK1, Q13464", "experimental": "as §1"}, "[43]": {"substrate": "SON, P18583", "experimental": "as §1"}, "[44]": {"biological_target": "SRRM2, Q9UQ35", "experimental": "as §1"}, "[45]": {"biological_target": "TFAM, Q00059", "experimental": "as §1"}, "[46]": {"biological_target": "TMEM214, Q6NUQ4", "experimental": "as §1"}, "[47]": {"biological_target": "TPX2, Q9ULW0", "experimental": "as §1"}},
  "note": "Some of the results follow. The list holds hits alone, and they repeat only in part.",
  "data": [
    {"binder": "LPERVHEVFRVGKLR", "note": "[CUL5]", "values": [
      {"measurement": "PRISMA enrichment of interactor (log2)", "setting": "[1]", "value": 4.26},
      {"measurement": "PRISMA enrichment of interactor (log2)", "setting": "[2]", "value": 4.77},
      {"measurement": "PRISMA enrichment of interactor (log2)", "setting": "[3]", "value": 5.4},
      {"measurement": "PRISMA enrichment of interactor (log2)", "setting": "[4]", "value": 4.69},
      {"measurement": "PRISMA enrichment of interactor (log2)", "setting": "[5]", "value": 6.76},
      {"measurement": "PRISMA enrichment of interactor (log2)", "setting": "[6]", "value": 5.01},
      {"measurement": "PRISMA enrichment of interactor (log2)", "setting": "[7]", "value": 5.25},
      {"measurement": "PRISMA enrichment of interactor (log2)", "setting": "[8]", "value": 7.16},
      {"measurement": "PRISMA enrichment of interactor (log2)", "setting": "[9]", "value": 5.44},
      {"measurement": "PRISMA enrichment of interactor (log2)", "setting": "[10]", "value": 5.4},
      {"measurement": "PRISMA enrichment of interactor (log2)", "setting": "[11]", "value": 5.39},
      {"measurement": "PRISMA enrichment of interactor (log2)", "setting": "[12]", "value": 4.66},
      {"measurement": "PRISMA enrichment of interactor (log2)", "setting": "[13]", "value": 4.1},
      {"measurement": "PRISMA enrichment of interactor (log2)", "setting": "[14]", "value": 4.62},
      {"measurement": "PRISMA enrichment of interactor (log2)", "setting": "[15]", "value": 4.66},
      {"measurement": "PRISMA enrichment of interactor (log2)", "setting": "[16]", "value": 5.33},
      {"measurement": "PRISMA enrichment of interactor (log2)", "setting": "[17]", "value": 4.34},
      {"measurement": "PRISMA enrichment of interactor (log2)", "setting": "[18]", "value": 4.46},
      {"measurement": "PRISMA enrichment of interactor (log2)", "setting": "[19]", "value": 7.96}
    ]},
    {"binder": "PWAPHSPPQVLRMAS", "note": "[C5orf56]", "values": [
      {"measurement": "PRISMA enrichment of interactor (log2)", "setting": "[20]", "value": 5.65},
      {"measurement": "PRISMA enrichment of interactor (log2)", "setting": "[21]", "value": 5.05},
      {"measurement": "PRISMA enrichment of interactor (log2)", "setting": "[22]", "value": 4.27},
      {"measurement": "PRISMA enrichment of interactor (log2)", "setting": "[23]", "value": 6.19},
      {"measurement": "PRISMA enrichment of interactor (log2)", "setting": "[24]", "value": 6.72},
      {"measurement": "PRISMA enrichment of interactor (log2)", "setting": "[25]", "value": 6.12},
      {"measurement": "PRISMA enrichment of interactor (log2)", "setting": "[26]", "value": 11},
      {"measurement": "PRISMA enrichment of interactor (log2)", "setting": "[27]", "value": 4.47},
      {"measurement": "PRISMA enrichment of interactor (log2)", "setting": "[28]", "value": 5.56},
      {"measurement": "PRISMA enrichment of interactor (log2)", "setting": "[29]", "value": 4.32},
      {"measurement": "PRISMA enrichment of interactor (log2)", "setting": "[30]", "value": 4.05},
      {"measurement": "PRISMA enrichment of interactor (log2)", "setting": "[31]", "value": 4.72},
      {"measurement": "PRISMA enrichment of interactor (log2)", "setting": "[32]", "value": 5.17},
      {"measurement": "PRISMA enrichment of interactor (log2)", "setting": "[33]", "value": 4.51},
      {"measurement": "PRISMA enrichment of interactor (log2)", "setting": "[34]", "value": 3.92},
      {"measurement": "PRISMA enrichment of interactor (log2)", "setting": "[35]", "value": 4.83},
      {"measurement": "PRISMA enrichment of interactor (log2)", "setting": "[36]", "value": 4.62},
      {"measurement": "PRISMA enrichment of interactor (log2)", "setting": "[37]", "value": 6.31},
      {"measurement": "PRISMA enrichment of interactor (log2)", "setting": "[38]", "value": 4.24},
      {"measurement": "PRISMA enrichment of interactor (log2)", "setting": "[39]", "value": 6.78},
      {"measurement": "PRISMA enrichment of interactor (log2)", "setting": "[40]", "value": 4.56},
      {"measurement": "PRISMA enrichment of interactor (log2)", "setting": "[41]", "value": 4.39},
      {"measurement": "PRISMA enrichment of interactor (log2)", "setting": "[42]", "value": 5.22},
      {"measurement": "PRISMA enrichment of interactor (log2)", "setting": "[43]", "value": 4.39},
      {"measurement": "PRISMA enrichment of interactor (log2)", "setting": "[44]", "value": 4.51},
      {"measurement": "PRISMA enrichment of interactor (log2)", "setting": "[45]", "value": 5.21},
      {"measurement": "PRISMA enrichment of interactor (log2)", "setting": "[46]", "value": 4.34},
      {"measurement": "PRISMA enrichment of interactor (log2)", "setting": "[47]", "value": 4.52}
    ]}
  ]
}
